The target of experiment [1] is HLA-DR from KG-1 cells (cell lysate) (human). In words: antibody affinity column on KG-1 lysate, MALDI-TOF identification.
Experiment [2] deals with HLA-DR on cells that express HLA-DR (human). As to the kind of experiment: flow cytometry on cell lines and normal donors' blood cells.

These are yes or no findings as the source states them, for the method shown. Some binding calls cover weakened binding; strength is not graded here.

B1: K8-355 (antibody, mouse IgG1, V domains shown)
VH: QIQLVQSGPELKKPGETVKISCKASKYTFTNYGMNWVKQAPGKVLRWMGWINTYTGEPTYADDFKGRFAFSLETSASTAYLQINNLKNEDMATYFCATTTLITYYFDYWGQGTTLTVSS
VL: DIQMTQTTSSLSASLGDRVTISCRSSQDISKYLNWYQQKPDGTVKLLIYYTSRLHSGVPSRFSGSGSGTDYSLTISNLEQEDIATYFCQQGDTVPWTFGGGTKLEIK
For B1, the binding entry in experiment [1] and in experiment [2] was “binds” throughout.

(Values after patent US6894149 (PROTEIN DESIGN LABS, dated 2005).)
